Test results from publication PMC12448934.
These are yes or no findings as the source states them, for the method shown. In cells and extracts the contact can be indirect. Some entries that bind do so weakly or less than the wild type.

Amino acid sequences for entries named in this document (tags omitted). A change or cut given only in a name is not applied to a line headed by its entry.
UniProt Q61616: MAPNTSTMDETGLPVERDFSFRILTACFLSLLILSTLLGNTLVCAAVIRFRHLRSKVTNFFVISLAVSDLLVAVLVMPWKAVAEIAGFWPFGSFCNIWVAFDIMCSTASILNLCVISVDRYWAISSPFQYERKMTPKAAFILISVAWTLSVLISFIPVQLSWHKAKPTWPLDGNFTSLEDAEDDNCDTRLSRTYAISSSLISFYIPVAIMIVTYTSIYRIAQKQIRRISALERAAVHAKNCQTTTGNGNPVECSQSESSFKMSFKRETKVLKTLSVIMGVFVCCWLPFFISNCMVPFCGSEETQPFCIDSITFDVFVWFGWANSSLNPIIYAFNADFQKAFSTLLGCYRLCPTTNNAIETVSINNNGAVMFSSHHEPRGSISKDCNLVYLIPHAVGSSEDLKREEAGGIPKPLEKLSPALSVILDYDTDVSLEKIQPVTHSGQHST
UniProt Q99MK8: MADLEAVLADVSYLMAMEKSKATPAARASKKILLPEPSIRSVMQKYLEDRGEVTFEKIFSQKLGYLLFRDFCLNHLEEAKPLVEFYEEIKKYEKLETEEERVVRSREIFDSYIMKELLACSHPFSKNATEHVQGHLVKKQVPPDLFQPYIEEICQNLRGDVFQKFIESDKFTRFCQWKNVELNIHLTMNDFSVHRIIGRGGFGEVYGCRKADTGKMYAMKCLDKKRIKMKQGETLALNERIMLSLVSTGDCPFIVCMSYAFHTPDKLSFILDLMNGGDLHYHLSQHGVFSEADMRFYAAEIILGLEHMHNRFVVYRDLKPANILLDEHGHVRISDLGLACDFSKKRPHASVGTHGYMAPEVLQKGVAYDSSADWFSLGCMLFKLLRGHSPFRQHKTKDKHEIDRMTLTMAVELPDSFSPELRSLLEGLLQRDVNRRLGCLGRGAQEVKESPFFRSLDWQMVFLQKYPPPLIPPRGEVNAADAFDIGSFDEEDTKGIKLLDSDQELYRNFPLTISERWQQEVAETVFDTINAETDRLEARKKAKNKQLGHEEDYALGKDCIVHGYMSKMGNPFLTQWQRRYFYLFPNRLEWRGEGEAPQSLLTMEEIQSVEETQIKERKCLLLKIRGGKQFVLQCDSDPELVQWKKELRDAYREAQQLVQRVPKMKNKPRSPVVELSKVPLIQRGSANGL

Target: Dopamine D1 receptor (D1R), mouse (mouse (endogenous in striatum)) (UniProt Q61616)
Experiment: co-IP; striatal tissue of 6-month-old WT and FMRP-P608L mice in RIPA buffer; immunoprecipitated by anti-D1R, western blot for GRK2

- binding: binds
Sequence: G protein-coupled receptor kinase 2 (GRK2), mouse (from UniProt Q99MK8 1-689) (enzyme)
